Results are given in words; binding and its absence hold for the method and conditions named. Some results given as binding are weak or reduced against the parent protein; the word gives no strength. Where a sequence is shown, tags or fusion partners need not be part of it.

The chains behind the UniProt entries cited, without tags or fusion partners.
UniProt O35235: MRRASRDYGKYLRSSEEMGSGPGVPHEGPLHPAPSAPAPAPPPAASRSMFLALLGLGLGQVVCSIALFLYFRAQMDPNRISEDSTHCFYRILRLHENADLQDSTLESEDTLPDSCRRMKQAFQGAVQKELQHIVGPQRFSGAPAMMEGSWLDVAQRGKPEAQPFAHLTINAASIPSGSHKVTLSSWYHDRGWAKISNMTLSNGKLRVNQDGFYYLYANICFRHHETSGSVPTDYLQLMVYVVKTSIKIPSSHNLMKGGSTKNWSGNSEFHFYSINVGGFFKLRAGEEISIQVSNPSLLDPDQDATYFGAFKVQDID

For the experiment, the target named is mouse RANKL transiently expressed by HEK-293 cells (mouse) (UniProt O35235). The experiment can be described thus: flow cytometry on HEK-293 cells transiently transfected with muRANKL. On the technique in general: In flow cytometry, cells or beads pass a laser one at a time.

B1: recombinant murine RANK-Fc (Fc fusion, mouse, UniProt O35305 31-214, looked up, not shown: a dimerising Fc or GST)
chain: VTPPCTQERHYEHLGRCCSRCEPGKYLSSKCTPTSDSVCLPCGPDEYLDTWNEEDKCLLHKVCDAGKALVAVDPGNHTAPRRCACTAGYHWNSDCECCRRNTECAPGFGAQHPLQLNKDTVCTPCLLGFFSDVFSSTDKCKPWTNCTLLGKLEAHQGTTESDVVCSSSMTLRRPPKEAQAYLPS
modifications: biotinylated
For the molecule B1, the binding entry is reported as “binds”.

The values are drawn from patent US20230042913A1 (COUNCIL OF THE QUEENSLAND INSTITUTE OF MEDICAL RESEARCH, published 2023).
